# Literature values in patent US9180159B2, “Use of cell-permeable peptide inhibitors of the JNK signal transduction pathway for the treatment of chronic or non-chronic inflammatory digestive diseases” (Xigen Inflammation Ltd., priority 2008, dated 2015).
# For at least one compound, name, drawing or mass did not settle the structure.
# Tested on: MPTP-induced PD
# Conditions: Wang et al. 2004; cited from earlier work
smiles,measurement,value
Oc1c2ccccc2c2c3c(cccc13)N=N2 [SP600125],apoptosis of dopaminergic neurons,protect dopaminergic neurons from apoptosis
same,level of dopamine,partly restore the level of dopamine
same,levels of c-Jun phosphorylation,reduce the levels of c-Jun phosphorylation
